# Results from PubChem BioAssay AID493014 (National Center for Advancing Translational Sciences (NCATS), 2011).
# The other results are listed elsewhere or left out. These are further read-outs of the screen, such as a control signal, another cell line or another target. No call is given for them. Compounds called inactive in the main read-out are mostly missing here. The note in brackets gives the kind of curve behind each potency; many fits are weak.
# Experiment: qHTS Assay to Find Inhibitors of Chronic Active B-Cell Receptor Signaling
# Conditions: ABC-DLBCL IkBa-CBG/CBR reporter, luminescence ratio (green luciferase fused to IkBa over red control in TMD8 lymphoma cells), 4 h
# Summary of the method: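 TMD8 ABC-DLBCL cells carrying doxycycline-inducible green luciferase fused to IkappaBalpha plus unfused red luciferase were exposed to compounds (up to 46 uM) for 4 hrs at 37C. Activity came from the overlap-corrected green/red luminescence ratio.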
# [1] = measured here: CBR red luminescence, cell number
# [2] = measured here: IkBa-CBG green luminescence
Compound,AC50 [1],AC50 [2]
CCN(CC)S(=O)(=O)c1ccc(N/N=C/c2cc(OC)c(OC)cc2OC)nc1,"32.6 µM [rising, partial curve, poor fit]",
CCCn1nnc(NC(=O)c2cccc(OCc3ccccc3)c2)n1,"20.6 µM [falling, single point]",
CCCCCc1ccc(-c2ccc(/C=C/C(N)=O)cc2)nc1,"20.6 µM [falling, partial curve]",
CN(C)c1ccc(-c2cccc(C3CC=CC4C3C(=O)N(Cc3ccccc3)C4c3ccc4ccccc4c3)c2)cc1 (stereo not given),"31.6 µM [rising, single point]",
Cc1cccc2sc(N(CCN3CCOCC3)C(=O)CCS(=O)(=O)c3ccccc3)nc12,"0.92 µM [rising, full curve, poor fit]",
CN1CCc2c(sc3c2c(=O)n(-c2ccccc2)c2nnc(SCc4ccc(Cl)cc4)n32)C1,"5.62 µM [falling, single point]",
NNc1nc(-c2ccccc2)cc(-c2ccccc2)n1,"2.51 µM [falling, full curve]",
O=C(Nc1nc(-c2ccc(Cl)s2)cs1)c1ccccc1,"4.11 µM [falling, partial curve]",
Oc1ccc(/C=C/c2ccc3cccc(O)c3n2)cc1Br,"10 µM [rising, partial curve]","22.4 µM [falling, single point]"
CCOc1ccc(C(C)=O)cc1N1C(=O)C2C3C=CC(O3)C2C1=O (stereo not given),"11.2 µM [falling, partial curve]",
COc1ccc(C)cc1NC(=O)Nc1ccc2c(c1)CCC2,"0.631 µM [rising, full curve]",
CCN(CC)CCN1C(=O)C(=O)/C(=C(/O)c2cnn(-c3ccccc3)c2C)C1c1ccc(C)o1 (stereo not given),"5.62 µM [rising, single point]",
CC(C)Cc1nnc(NC(=O)CSc2nc(O)c(-c3ccccc3)c(=O)[nH]2)s1,"25.1 µM [falling, single point]",
Cc1ccc(-n2c(C)cc(/C=C3\SC(=O)NC3=O)c2C)cc1,"22.4 µM [rising, partial curve, poor fit]",
O=C(c1ccc2nc(N3CCCCC3)sc2c1)N1CCN(c2ccccn2)CC1,"29.1 µM [rising, single point]",
O=C(CSc1ncnc2nc[nH]c12)Nc1nnc(SCc2ccc(Cl)c(Cl)c2)s1,"35.5 µM [rising, single point]",
O=C(Nc1cccc(NC(=O)c2cccs2)c1)c1ccc(Br)cc1,"8.91 µM [falling, single point]",
C[C@]12CCC(=O)C=C1CC[C@@H]1[C@@H]2[C@@H](O)C[C@@]2(C)[C@H]1CC[C@]2(O)C(=O)CO,"0.00411 µM [rising, full curve, poor fit]","2.59 µM [falling, partial curve, poor fit]"

# Some of the entries above in a different format:
Compound	AC50 [1]	AC50 [2]
Cc1ccc(-n2c(C)cc(/C=C3\SC(=O)NC3=O)c2C)cc1	22.4 µM [rising, partial curve, poor fit]	
C[C@]12CCC(=O)C=C1CC[C@@H]1[C@@H]2[C@@H](O)C[C@@]2(C)[C@H]1CC[C@]2(O)C(=O)CO	0.00411 µM [rising, full curve, poor fit]	2.59 µM [falling, partial curve, poor fit]
